Experimental data published in publication PMC9622807.
These are yes or no findings as the source states them, for the method shown. Binding seen in cells or lysates may run through a third protein. Some entries that bind do so weakly or less than the wild type.

The chains behind the UniProt entries cited, without tags or fusion partners.
UniProt Q08211: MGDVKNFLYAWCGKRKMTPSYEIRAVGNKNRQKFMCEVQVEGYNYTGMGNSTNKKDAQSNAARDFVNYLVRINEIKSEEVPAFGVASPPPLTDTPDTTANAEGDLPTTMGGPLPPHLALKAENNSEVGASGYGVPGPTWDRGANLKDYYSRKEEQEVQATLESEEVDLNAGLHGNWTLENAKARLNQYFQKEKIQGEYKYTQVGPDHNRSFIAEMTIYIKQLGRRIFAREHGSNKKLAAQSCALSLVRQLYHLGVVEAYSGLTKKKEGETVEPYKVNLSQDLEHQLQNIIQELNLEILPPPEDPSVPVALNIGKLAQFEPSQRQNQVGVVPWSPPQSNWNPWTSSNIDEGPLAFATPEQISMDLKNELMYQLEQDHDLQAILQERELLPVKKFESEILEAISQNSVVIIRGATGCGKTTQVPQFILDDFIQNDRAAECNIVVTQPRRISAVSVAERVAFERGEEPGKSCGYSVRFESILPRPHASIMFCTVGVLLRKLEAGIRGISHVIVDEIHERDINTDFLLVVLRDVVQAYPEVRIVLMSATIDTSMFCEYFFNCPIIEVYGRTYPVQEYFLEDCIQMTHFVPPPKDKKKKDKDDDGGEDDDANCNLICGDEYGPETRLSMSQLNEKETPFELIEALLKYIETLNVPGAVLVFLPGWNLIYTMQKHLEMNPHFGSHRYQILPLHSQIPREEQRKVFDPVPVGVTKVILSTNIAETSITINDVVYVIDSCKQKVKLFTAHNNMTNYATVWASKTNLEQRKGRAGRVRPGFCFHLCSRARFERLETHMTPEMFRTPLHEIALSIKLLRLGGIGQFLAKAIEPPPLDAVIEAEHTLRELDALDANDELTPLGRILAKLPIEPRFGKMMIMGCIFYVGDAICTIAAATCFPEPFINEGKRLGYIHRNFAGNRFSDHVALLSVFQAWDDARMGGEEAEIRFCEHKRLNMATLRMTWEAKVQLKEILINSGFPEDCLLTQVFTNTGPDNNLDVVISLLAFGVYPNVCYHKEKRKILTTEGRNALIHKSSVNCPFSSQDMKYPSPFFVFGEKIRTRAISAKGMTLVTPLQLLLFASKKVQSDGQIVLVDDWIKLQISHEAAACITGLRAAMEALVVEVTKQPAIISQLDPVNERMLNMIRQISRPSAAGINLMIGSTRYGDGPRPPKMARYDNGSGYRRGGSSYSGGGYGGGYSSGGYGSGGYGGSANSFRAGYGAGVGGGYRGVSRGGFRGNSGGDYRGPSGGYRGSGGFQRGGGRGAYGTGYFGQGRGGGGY

Molecular target: DExH-Box Helicase 9 (DHX9) (human (endogenous in human TECs)) (UniProt Q08211)
Assay: co-IP; immunoprecipitation (anti-DHX9 is listed for immunoprecipitation) and western blot, Supplementary Fig. 2j; cells and treatment not shown

binding: binds
B1: p150 isoform of ADAR1 (protein, UniProt P55265-1 1-1226)
chain: MNPRQGYSLSGYYTHPFQGYEHRQLRYQQPGPGSSPSSFLLKQIEFLKGQLPEAPVIGKQTPSLPPSLPGLRPRFPVLLASSTRGRQVDIRGVPRGVHLRSQGLQRGFQHPSPRGRSLPQRGVDCLSSHFQELSIYQDQEQRILKFLEELGEGKATTAHDLSGKLGTPKKEINRVLYSLAKKGKLQKEAGTPPLWKIAVSTQAWNQHSGVVRPDGHSQGAPNSDPSLEPEDRNSTSVSEDLLEPFIAVSAQAWNQHSGVVRPDSHSQGSPNSDPGLEPEDSNSTSALEDPLEFLDMAEIKEKICDYLFNVSDSSALNLAKNIGLTKARDINAVLIDMERQGDVYRQGTTPPIWHLTDKKRERMQIKRNTNSVPETAPAAIPETKRNAEFLTCNIPTSNASNNMVTTEKVENGQEPVIKLENRQEARPEPARLKPPVHYNGPSKAGYVDFENGQWATDDIPDDLNSIRAAPGEFRAIMEMPSFYSHGLPRCSPYKKLTECQLKNPISGLLEYAQFASQTCEFNMIEQSGPPHEPRFKFQVVINGREFPPAEAGSKKVAKQDAAMKAMTILLEEAKAKDSGKSEESSHYSTEKESEKTAESQTPTPSATSFFSGKSPVTTLLECMHKLGNSCEFRLLSKEGPAHEPKFQYCVAVGAQTFPSVSAPSKKVAKQMAAEEAMKALHGEATNSMASDNQPEGMISESLDNLESMMPNKVRKIGELVRYLNTNPVGGLLEYARSHGFAAEFKLVDQSGPPHEPKFVYQAKVGGRWFPAVCAHSKKQGKQEAADAALRVLIGENEKAERMGFTEVTPVTGASLRRTMLLLSRSPEAQPKTLPLTGSTFHDQIAMLSHRCFNTLTNSFQPSLLGRKILAAIIMKKDSEDMGVVVSLGTGNRCVKGDSLSLKGETVNDCHAEIISRRGFIRFLYSELMKYNSQTAKDSIFEPAKGGEKLQIKKTVSFHLYISTAPCGDGALFDKSCSDRAMESTESRHYPVFENPKQGKLRTKVENGEGTIPVESSDIVPTWDGIRLGERLRTMSCSDKILRWNVLGLQGALLTHFLQPIYLKSVTLGYLFSQGHLTRAICCRVTRDGSAFEDGLRHPFIVNHPKVGRVSIYDSKRQSGKTKETSVNWCLADGYDLEILDGTRGTVDGPRNELSRVSKKNIFLLFKKLCSFRYRRDLLRLSYGEAKKAARDYETAKNYFKKGLKDMGYGNWISKPQEEKNFYLCPV
